Values from PubChem BioAssay AID652259 (Drosophila RNAi Screening Center, 2013).
The screen tested about 22,000 reagents; below is a random part of those with a known target gene and a result. In the full data, 233 (1.1%) are marked active. 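Light values are raw, unnormalised plate reads; the ratio scores behind the reporter calls were not deposited.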 Not given: the amount of reagent, the time to read-out, the dose of the treatment.

Assay: 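Genome-wide hunt for genes that control Wingless pathway activity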 (primary screen)
Cells: Drosophila clone 8 imaginal disc epithelial cells
Reagent: long dsRNA against Drosophila genes
Treatment: pathway stimulated by co-transfected Wingless expression plasmid
Measurement: 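Firefly luciferase from a tcf-site Wingless reporter, measured alongside co-transfected Renilla luciferase that tracks transfection; pathway stimulated by a Wingless plasmid; the firefly-to-Renilla ratio is not deposited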
Direction: firefly reporter light: higher = more Wg reporter light, before normalisation; Renilla control light: higher = more transfected or surviving cells
Hit rule: 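Strong candidates differ from their plate mean by at least two out of four per-plate statistical tests; weak candidates meet just one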
Meaning of the calls: active = candidate regulator (raises or lowers reporter); inactive = not a candidate

predicted target	dsRNA	reporter change call, replicate 1	firefly reporter light, replicate 1	firefly reporter light, replicate 2	Renilla control light, replicate 1	Renilla control light, replicate 2	outcome
MstProx	DRSC12458		2967		1249		inactive
MstProx	DRSC12601		10329		3587		inactive
SAK	DRSC11879		14134		5312		inactive
CG5861	DRSC02907		2592	7293	1608	3513	inactive
CG9689	DRSC18440		2971	5996	685	1495	inactive
CG7744	DRSC07036		8935		3280		inactive
Rbp9	DRSC00416		2320	6176	1088	1429	inactive
Rbp9	DRSC00779	Wg reporter activity raised	16337		2081		active
CG8461	DRSC16424		9354		4586		inactive
Smyd4-3	DRSC07041		7922		2329		inactive

Continued (2 carried over from the part before).
predicted target	dsRNA	reporter change call, replicate 1	firefly reporter light, replicate 1	firefly reporter light, replicate 2	Renilla control light, replicate 1	Renilla control light, replicate 2	outcome
CG8461	DRSC16424		9354		4586		inactive
Smyd4-3	DRSC07041		7922		2329		inactive
CG15529	DRSC15066		7559		2977		inactive
Prp38	DRSC07060		7024		1009		inactive
CG31808	DRSC22962		7.66e5	7.94e5	4.07e5	3.30e5	inactive
CG10680	DRSC02093		2789	8424	709	3338	inactive
glec	DRSC16958		34695		5496		inactive
CG17264	DRSC00500		8292		3635		inactive
CG12426	DRSC14516		7064		2955		inactive
CG10185	DRSC14205		13893		3768		inactive
CG34165	DRSC01970	Wg reporter activity raised	5337	13335	615	1232	active
Ythdc1	DRSC08141		7463		3003		inactive
CG10077	DRSC09691		4776		1400		inactive
Kdm3	DRSC16393		7216		2842		inactive
CG9040	DRSC11053		3288		1206		inactive
Vha16-4	DRSC07321		5400		1591		inactive
Cyp6a16Psi (retired record)	DRSC03307		2057	3571	850	1050	inactive
bond	DRSC16135		2112	4418	924	945	inactive
CycH	DRSC11861		29653		8422		inactive
CycH	DRSC21308		5.65e5	5.63e5	2.06e5	1.59e5	inactive
mst	DRSC20582		7029		4892		inactive
